Some entries share one result that the patent states for a list of compounds.
Test system: different influenza strains
Type: cell-based

| Substance | 50% inhibitory effect | IC50 against different influenza strains (FIG. 7) |
| --- | --- | --- |
| C-phycocyanin | less than 1.0 mg/ml | less than 2.5 mg/ml |
| allophycocyanin | – | less than 2.5 mg/ml |

From US9657263B2 (priority 2010, dated 2017)
